Laboratory results taken from publication doi:10.1101/2020.03.06.980961.

Tests used:
[1] = biological target: T1, Mtf1-Δ20, His-tagged (Saccharomyces cerevisiae) (UniProt P14908); assay: BLI
T1 sequence: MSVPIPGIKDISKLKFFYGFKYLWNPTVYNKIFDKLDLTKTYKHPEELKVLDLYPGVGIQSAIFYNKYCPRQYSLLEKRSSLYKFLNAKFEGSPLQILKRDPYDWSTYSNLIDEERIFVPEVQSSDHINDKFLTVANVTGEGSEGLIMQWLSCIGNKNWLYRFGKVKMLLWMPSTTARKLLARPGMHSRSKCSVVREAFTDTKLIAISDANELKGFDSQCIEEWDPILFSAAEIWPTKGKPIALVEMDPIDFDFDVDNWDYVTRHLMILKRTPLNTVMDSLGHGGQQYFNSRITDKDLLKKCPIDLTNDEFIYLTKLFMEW

[2] = biological target: T2, Mtf1-WT (Mitochondrial Transcription Factor 1), His-tagged (Saccharomyces cerevisiae) (UniProt P14908); assay: BLI
T2 sequence: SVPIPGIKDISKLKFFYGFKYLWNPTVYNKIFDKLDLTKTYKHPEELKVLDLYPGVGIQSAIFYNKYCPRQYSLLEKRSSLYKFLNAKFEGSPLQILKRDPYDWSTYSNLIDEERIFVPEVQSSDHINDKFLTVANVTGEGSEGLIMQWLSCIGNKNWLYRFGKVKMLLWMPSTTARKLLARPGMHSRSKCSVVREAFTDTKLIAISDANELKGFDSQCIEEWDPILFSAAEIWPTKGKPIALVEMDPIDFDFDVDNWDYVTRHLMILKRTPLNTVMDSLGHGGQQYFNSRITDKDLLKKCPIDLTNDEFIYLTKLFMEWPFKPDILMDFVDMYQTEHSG

[3] = biological target: T1, Mtf1-Δ20, His-tagged (Saccharomyces cerevisiae); assay: ultrafiltration
[4] = biological target: T2, Mtf1-WT (Mitochondrial Transcription Factor 1), His-tagged (Saccharomyces cerevisiae); assay: ultrafiltration

binding [1]: binds weakly | binding [2]: binds | binding [3]: no binding (tested: 2 µM each) | binding [4]: binds
Substance: Rpo41, core subunit of the Saccharomyces cerevisiae mitochondrial RNA polymerase (enzyme)

These are yes or no findings as the source states them, for the method shown. For some of these results: Binding calls can cover weak binding; strength is not graded here. Sequences can lack the tags named with a protein.
